The target in assay [1] is rod-outer-segment guanylyl cyclase 1 (ROS-GC1), native full-length, bovine, from ROS preparations (bovine) (UniProt P55203). Description: cross-linking.
Assay [2] deals with T1, full-length, human ROS-GC1 overexpressed in HEK293 cells (human), Q02846.
T1 chain: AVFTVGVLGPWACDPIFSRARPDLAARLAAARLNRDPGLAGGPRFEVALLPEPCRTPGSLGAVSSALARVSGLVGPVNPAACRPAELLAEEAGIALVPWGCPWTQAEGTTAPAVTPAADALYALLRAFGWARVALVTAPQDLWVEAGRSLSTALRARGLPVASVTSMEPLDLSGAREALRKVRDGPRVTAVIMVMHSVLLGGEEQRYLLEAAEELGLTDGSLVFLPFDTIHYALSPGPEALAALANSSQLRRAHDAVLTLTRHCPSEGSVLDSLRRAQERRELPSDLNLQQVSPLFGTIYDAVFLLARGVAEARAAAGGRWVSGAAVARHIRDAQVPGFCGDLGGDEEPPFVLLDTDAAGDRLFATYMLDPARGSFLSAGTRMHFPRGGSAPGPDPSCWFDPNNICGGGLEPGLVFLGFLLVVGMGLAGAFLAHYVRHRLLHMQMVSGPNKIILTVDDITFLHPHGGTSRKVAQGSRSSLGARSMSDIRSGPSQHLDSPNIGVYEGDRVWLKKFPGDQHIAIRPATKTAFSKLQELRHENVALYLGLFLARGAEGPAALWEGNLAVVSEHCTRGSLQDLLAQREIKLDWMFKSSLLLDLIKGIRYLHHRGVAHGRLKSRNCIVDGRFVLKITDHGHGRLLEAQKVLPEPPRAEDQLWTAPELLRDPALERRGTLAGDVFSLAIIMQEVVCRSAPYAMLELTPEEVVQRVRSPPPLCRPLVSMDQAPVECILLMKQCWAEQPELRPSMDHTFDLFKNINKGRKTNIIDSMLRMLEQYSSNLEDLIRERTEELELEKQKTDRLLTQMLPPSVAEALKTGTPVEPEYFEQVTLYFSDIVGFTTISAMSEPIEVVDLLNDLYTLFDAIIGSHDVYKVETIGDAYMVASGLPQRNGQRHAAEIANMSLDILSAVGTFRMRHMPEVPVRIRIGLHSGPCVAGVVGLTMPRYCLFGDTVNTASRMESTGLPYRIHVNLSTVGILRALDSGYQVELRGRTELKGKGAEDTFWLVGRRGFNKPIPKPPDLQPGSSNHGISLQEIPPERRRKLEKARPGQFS
Description: cross-linking. As to conditions: remark: other sources report otherwise.

Amino acid sequences for entries named in this document (tags omitted). Residues count along the entry.
UniProt P55203, 57-1110: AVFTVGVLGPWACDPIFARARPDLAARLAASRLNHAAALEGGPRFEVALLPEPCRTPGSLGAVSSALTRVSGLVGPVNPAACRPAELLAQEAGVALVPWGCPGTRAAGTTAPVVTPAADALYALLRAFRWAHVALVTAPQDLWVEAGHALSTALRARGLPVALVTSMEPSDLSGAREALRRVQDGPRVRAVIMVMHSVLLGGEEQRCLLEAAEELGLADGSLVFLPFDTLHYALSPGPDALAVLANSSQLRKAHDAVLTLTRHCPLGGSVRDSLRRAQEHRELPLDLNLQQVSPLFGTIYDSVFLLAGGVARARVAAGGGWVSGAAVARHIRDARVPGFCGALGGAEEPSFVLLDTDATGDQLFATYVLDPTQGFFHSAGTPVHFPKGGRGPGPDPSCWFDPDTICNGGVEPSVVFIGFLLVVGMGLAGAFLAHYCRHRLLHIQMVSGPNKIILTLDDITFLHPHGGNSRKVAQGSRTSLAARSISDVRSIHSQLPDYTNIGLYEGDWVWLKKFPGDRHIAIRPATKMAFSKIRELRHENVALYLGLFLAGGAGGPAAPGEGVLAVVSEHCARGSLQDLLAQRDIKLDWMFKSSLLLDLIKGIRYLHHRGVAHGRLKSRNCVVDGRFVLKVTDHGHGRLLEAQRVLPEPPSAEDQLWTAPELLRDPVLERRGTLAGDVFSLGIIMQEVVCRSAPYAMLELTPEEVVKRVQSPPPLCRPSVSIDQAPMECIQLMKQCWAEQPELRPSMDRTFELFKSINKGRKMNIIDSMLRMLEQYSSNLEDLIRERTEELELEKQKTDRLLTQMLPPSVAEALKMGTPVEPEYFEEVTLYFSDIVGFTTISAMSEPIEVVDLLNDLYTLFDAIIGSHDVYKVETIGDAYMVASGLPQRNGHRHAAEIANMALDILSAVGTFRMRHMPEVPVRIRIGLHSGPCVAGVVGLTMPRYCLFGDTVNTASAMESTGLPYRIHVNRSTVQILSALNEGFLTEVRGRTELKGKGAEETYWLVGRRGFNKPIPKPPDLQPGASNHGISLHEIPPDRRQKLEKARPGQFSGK

Results are given in words; binding and its absence hold for the method and conditions named. In cells and extracts the contact can be indirect. Some entries that bind do so weakly or less than the wild type.

Turning to “rod-outer-segment guanylyl cyclase 1 (ROS-GC1), native full-length, bovine, from ROS preparations (from UniProt P55203 57-1110) (enzyme)”, in assay [1], the binding result was “binds”.

B1: full-length, human ROS-GC1 overexpressed in HEK293 cells, Q02846 52-1103 (enzyme)
chain: AVFTVGVLGPWACDPIFSRARPDLAARLAAARLNRDPGLAGGPRFEVALLPEPCRTPGSLGAVSSALARVSGLVGPVNPAACRPAELLAEEAGIALVPWGCPWTQAEGTTAPAVTPAADALYALLRAFGWARVALVTAPQDLWVEAGRSLSTALRARGLPVASVTSMEPLDLSGAREALRKVRDGPRVTAVIMVMHSVLLGGEEQRYLLEAAEELGLTDGSLVFLPFDTIHYALSPGPEALAALANSSQLRRAHDAVLTLTRHCPSEGSVLDSLRRAQERRELPSDLNLQQVSPLFGTIYDAVFLLARGVAEARAAAGGRWVSGAAVARHIRDAQVPGFCGDLGGDEEPPFVLLDTDAAGDRLFATYMLDPARGSFLSAGTRMHFPRGGSAPGPDPSCWFDPNNICGGGLEPGLVFLGFLLVVGMGLAGAFLAHYVRHRLLHMQMVSGPNKIILTVDDITFLHPHGGTSRKVAQGSRSSLGARSMSDIRSGPSQHLDSPNIGVYEGDRVWLKKFPGDQHIAIRPATKTAFSKLQELRHENVALYLGLFLARGAEGPAALWEGNLAVVSEHCTRGSLQDLLAQREIKLDWMFKSSLLLDLIKGIRYLHHRGVAHGRLKSRNCIVDGRFVLKITDHGHGRLLEAQKVLPEPPRAEDQLWTAPELLRDPALERRGTLAGDVFSLAIIMQEVVCRSAPYAMLELTPEEVVQRVRSPPPLCRPLVSMDQAPVECILLMKQCWAEQPELRPSMDHTFDLFKNINKGRKTNIIDSMLRMLEQYSSNLEDLIRERTEELELEKQKTDRLLTQMLPPSVAEALKTGTPVEPEYFEQVTLYFSDIVGFTTISAMSEPIEVVDLLNDLYTLFDAIIGSHDVYKVETIGDAYMVASGLPQRNGQRHAAEIANMSLDILSAVGTFRMRHMPEVPVRIRIGLHSGPCVAGVVGLTMPRYCLFGDTVNTASRMESTGLPYRIHVNLSTVGILRALDSGYQVELRGRTELKGKGAEDTFWLVGRRGFNKPIPKPPDLQPGSSNHGISLQEIPPERRRKLEKARPGQFS
With B1, in assay [2], the binding entry is “binds”.

(Values after article doi:10.1101/2020.09.25.312835 (bioRxiv, 2020).)
